# Where a name gives a salt, the structure may show the parent alone. Some of the results follow. Single values are uncertain here, since repeats match poorly.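 In a drug-repurposing library screen, luminescence reads luciferase driven by eight TEAD-binding elements, stably integrated into human kidney-derived cells. Compounds scoring over five robust Z scores above the plate mean are called hits.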
# Test system: HEK293A TEAD-LUC reporter
# Test: TEAD-luciferase reporter activity (YAP activation), robust Z score vs plate; higher = stronger YAP/TEAD activation
# Conditions: 24 h
Compound,TEAD-luciferase reporter activity (compound concentration: 200 nM),TEAD-luciferase reporter activity (compound concentration: 2 uM),TEAD-luciferase reporter activity (compound concentration: 10 uM)
c1ccc(-c2nn3c(c2-c2ccnc4cc(OCCN5CCOCC5)ccc24)CCC3)nc1,inactive: -1.8,inactive: -1.41,inactive: -2.99
CC(C)=CCOc1cc(NC(=S)c2ccccc2C)ccc1Cl,inactive: 0.256,inactive: -0.755,inactive: 0.244
O=C(O)c1cc(-c2ccccc2)nc2ccccc12,inactive: -0.148,inactive: -1.06,inactive: -0.282
Cc1c2oc3c(C)ccc(C(=O)N[C@@H]4C(=O)N[C@H](C(C)C)C(=O)N5CCC[C@H]5C(=O)N(C)CC(=O)N(C)[C@@H](C(C)C)C(=O)O[C@@H]4C)c3nc-2c(C(=O)N[C@@H]2C(=O)N[C@H](C(C)C)C(=O)N3CCC[C@H]3C(=O)N(C)CC(=O)N(C)[C@@H](C(C)C)C(=O)O[C@@H]2C)c(N)c1=O,inactive: 0.816,,inactive: -2.44
Cc1c2oc3c(C)ccc(C(=O)N[C@@H]4C(=O)N[C@H](C(C)C)C(=O)N5CCC[C@H]5C(=O)N(C)CC(=O)N(C)[C@@H](C(C)C)C(=O)O[C@@H]4C)c3nc-2c(C(=O)N[C@@H]2C(=O)N[C@H](C(C)C)C(=O)N3CCC[C@H]3C(=O)N(C)CC(=O)N(C)[C@@H](C(C)C)C(=O)O[C@@H]2C)c(N)c1=O [dactinomycin],,inactive: -2.49,
CC(C)OC(=O)CNC(=O)[C@H](CS)NC(=O)CC[C@H](N)C(=O)O [Glutathione monoisopropyl ester],inactive: -2.04,inactive: -0.237,inactive: -0.278
CC(C)Nc1cc(-c2c[nH]c(C(=O)N[C@H](CO)c3cccc(Cl)c3)c2)c(Cl)cn1,inactive: 0.625,inactive: -0.092,inactive: 1.01
CN(C)CCCN1c2ccccc2CCc2ccc(C#N)cc21,inactive: -1.08,inactive: -0.961,inactive: 3.35
COC(=O)C1=C(C)N(C)C(C)=C(C(=O)OC)C1c1ccc(C(F)(F)F)cc1,inactive: -3.16,inactive: -1.15,inactive: 2.89
CCCCCCCC/C=C\CCCCCCCC(=O)NCc1ccc(OCCN)c(OC)c1,inactive: -0.832,inactive: -0.667,inactive: 3.58
CCn1c(C(=O)N(C2CC2)C2CC2)cc2c3c(ncn3C)c(Nc3cc(C)n(C)n3)nc21,inactive: 0.105,inactive: -1.78,inactive: -0.716
O=C(NC1CCCN(CCc2ccccc2)C1)c1cc2ccccc2o1 (stereo not drawn),inactive: 0.175,inactive: -1.37,inactive: 1.69
CC1=CC[C@@](O)(C(C)C)CC1 [4-Carvomenthenol],inactive: -2.64,inactive: -0.752,inactive: -1.26
CCCCCCCCCCCCCCSCC(=O)O [Tetradecylthioacetic acid],inactive: 2.37,inactive: -0.768,inactive: -1.84
COc1ccc(C(=O)N2CCN(c3ccc4c(c3)CCC(=O)N4)CC2)cc1OC,inactive: -0.654,inactive: -0.301,inactive: 0.0978
CCOC(=O)C[C@H](NC(=O)CN1C(=O)N[C@@](C)(c2ccc(C(=N)N)cc2)C1=O)c1ccccc1,inactive: 1.36,inactive: -0.298,inactive: -1.11

Compound,TEAD-luciferase reporter activity (compound concentration: 200 nM),TEAD-luciferase reporter activity (compound concentration: 2 uM),TEAD-luciferase reporter activity (compound concentration: 10 uM)
COc1ccc(S(=O)(=O)NCc2cc(CN3CCCC3)c(O)c(CN3CCCC3)c2)cc1 [Sulcardine sulfate],inactive: -0.395,inactive: -1.19,inactive: 0.188
CCOC(=O)[C@H](CCc1ccccc1)N[C@@H](C)C(=O)N1CCC[C@H]1C(=O)OCCCO[N+](=O)[O-],inactive: 0.201,inactive: 0.668,inactive: 3.36
COc1cc2ncnc(Nc3ccc(F)c(Cl)c3)c2cc1OCCN1CC2(CC2)C2(C1)OCCO2,inactive: -2.07,inactive: -1.69,inactive: 0.386
Cc1ccccc1NC(=O)Nc1ccc(CC(=O)N[C@@H](CC(C)C)C(=O)N[C@@H](CC(=O)O)C(=O)N[C@H](C(=O)N2CCC[C@H]2C(=O)O)C(C)C)cc1,inactive: -0.893,inactive: -0.209,active: 5.01
CCS(=O)(=O)c1ccc(OC)c(Nc2nccc(N(C)c3ccc4c(C)n[nH]c4c3)n2)c1,inactive: -0.121,inactive: -1.83,inactive: -1.76
CC(C)(C)c1cc(C2CCCCC2)ccc1OC(=O)c1ccncc1,inactive: -1.15,inactive: -0.124,inactive: -1.33
CCNC(=O)NCCCOc1cccc(CN2CCCCC2)c1 [Dalcotidine],inactive: -1.29,inactive: -1.98,inactive: 0.103
COc1ccc2[nH]c(SCCN3CCOCC3)nc2c1,inactive: 0.657,inactive: 1.09,inactive: -0.536
CCCCc1nc(CCCC)c(Cc2ccc(-c3ccccc3-c3nn[nH]n3)cc2)c(=O)[nH]1,inactive: 0.905,inactive: 1.28,inactive: 0.622
CC(C)COc1ccccc1N(CCCCN(C)CCc1cccnc1)C(=O)c1cccc(C(F)(F)F)c1,inactive: 1.62,inactive: -1.16,inactive: 0.272
COc1ccccc1OC(=O)c1ccccc1OC(C)=O [guacetisal],inactive: -1.12,inactive: 1.06,inactive: 0.388
COc1cc(C(=O)NS(=O)(=O)c2ccccc2C)ccc1Cc1cn(C)c2ccc(C(=O)NCC(C)CC(F)(F)F)cc12 (stereo not drawn),inactive: 1,inactive: 0.033,inactive: -1.7
CC(=O)Oc1ccc(Br)cc1C(=O)O,inactive: -1.4,inactive: -1.95,inactive: -1.41
Cn1c(=O)c2c(ncn2CC(=O)N2CC3(CCN(CCc4ccccc4)CC3)OC2=O)n(C)c1=O [spirophylline],inactive: 0.49,inactive: 3.09,inactive: 1.48
CCc1cccc(C)c1CNc1cc(C(N)=O)cn2c(C)c(C)nc12,inactive: 0.738,inactive: -1.07,inactive: -1.79
O=C1C2CCCCC2C(=O)N1CCCCN1CCN(c2nsc3ccccc23)CC1 (stereo not drawn) [perospirone],inactive: -0.718,inactive: -0.434,inactive: 4.09

# Only TEAD-luciferase reporter activity (compound concentration: 200 nM) (two entries from above):
Compound | TEAD-luciferase reporter activity (compound concentration: 200 nM)
CCS(=O)(=O)c1ccc(OC)c(Nc2nccc(N(C)c3ccc4c(C)n[nH]c4c3)n2)c1 | inactive: -0.121
CC(C)(C)c1cc(C2CCCCC2)ccc1OC(=O)c1ccncc1 | inactive: -1.15

# Reference: the supplement of paper PMC10735217
